Experimental findings from publication PMC9282995 are described below.

Amino acid sequences for entries named in this document (tags omitted).
UniProt P27816: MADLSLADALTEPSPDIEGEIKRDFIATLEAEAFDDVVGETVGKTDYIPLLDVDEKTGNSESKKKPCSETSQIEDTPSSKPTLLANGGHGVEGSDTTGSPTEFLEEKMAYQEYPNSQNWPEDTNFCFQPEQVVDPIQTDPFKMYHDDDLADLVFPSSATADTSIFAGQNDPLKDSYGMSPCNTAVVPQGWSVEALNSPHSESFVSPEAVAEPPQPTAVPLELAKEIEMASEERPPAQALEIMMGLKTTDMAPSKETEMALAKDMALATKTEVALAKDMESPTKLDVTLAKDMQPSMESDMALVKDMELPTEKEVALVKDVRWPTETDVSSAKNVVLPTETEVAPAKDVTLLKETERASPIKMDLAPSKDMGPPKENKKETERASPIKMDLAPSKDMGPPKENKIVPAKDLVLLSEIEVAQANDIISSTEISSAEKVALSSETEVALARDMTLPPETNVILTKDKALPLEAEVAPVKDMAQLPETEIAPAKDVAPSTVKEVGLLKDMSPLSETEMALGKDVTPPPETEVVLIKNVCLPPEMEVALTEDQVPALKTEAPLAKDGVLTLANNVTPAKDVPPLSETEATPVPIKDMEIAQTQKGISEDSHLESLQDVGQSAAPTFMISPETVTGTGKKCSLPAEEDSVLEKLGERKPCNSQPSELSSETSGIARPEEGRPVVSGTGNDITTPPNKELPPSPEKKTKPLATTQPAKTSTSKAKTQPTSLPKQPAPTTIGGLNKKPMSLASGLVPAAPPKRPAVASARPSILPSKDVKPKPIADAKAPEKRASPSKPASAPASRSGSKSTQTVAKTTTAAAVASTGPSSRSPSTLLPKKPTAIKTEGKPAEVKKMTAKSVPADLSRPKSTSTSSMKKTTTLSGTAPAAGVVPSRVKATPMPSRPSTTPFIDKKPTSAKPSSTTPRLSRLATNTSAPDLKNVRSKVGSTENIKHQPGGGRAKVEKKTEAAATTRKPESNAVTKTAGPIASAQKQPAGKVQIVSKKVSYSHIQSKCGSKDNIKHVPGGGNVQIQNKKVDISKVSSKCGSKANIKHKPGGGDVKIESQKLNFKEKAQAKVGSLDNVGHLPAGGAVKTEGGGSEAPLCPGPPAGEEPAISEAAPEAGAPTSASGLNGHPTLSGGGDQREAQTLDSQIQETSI
UniProt P09874: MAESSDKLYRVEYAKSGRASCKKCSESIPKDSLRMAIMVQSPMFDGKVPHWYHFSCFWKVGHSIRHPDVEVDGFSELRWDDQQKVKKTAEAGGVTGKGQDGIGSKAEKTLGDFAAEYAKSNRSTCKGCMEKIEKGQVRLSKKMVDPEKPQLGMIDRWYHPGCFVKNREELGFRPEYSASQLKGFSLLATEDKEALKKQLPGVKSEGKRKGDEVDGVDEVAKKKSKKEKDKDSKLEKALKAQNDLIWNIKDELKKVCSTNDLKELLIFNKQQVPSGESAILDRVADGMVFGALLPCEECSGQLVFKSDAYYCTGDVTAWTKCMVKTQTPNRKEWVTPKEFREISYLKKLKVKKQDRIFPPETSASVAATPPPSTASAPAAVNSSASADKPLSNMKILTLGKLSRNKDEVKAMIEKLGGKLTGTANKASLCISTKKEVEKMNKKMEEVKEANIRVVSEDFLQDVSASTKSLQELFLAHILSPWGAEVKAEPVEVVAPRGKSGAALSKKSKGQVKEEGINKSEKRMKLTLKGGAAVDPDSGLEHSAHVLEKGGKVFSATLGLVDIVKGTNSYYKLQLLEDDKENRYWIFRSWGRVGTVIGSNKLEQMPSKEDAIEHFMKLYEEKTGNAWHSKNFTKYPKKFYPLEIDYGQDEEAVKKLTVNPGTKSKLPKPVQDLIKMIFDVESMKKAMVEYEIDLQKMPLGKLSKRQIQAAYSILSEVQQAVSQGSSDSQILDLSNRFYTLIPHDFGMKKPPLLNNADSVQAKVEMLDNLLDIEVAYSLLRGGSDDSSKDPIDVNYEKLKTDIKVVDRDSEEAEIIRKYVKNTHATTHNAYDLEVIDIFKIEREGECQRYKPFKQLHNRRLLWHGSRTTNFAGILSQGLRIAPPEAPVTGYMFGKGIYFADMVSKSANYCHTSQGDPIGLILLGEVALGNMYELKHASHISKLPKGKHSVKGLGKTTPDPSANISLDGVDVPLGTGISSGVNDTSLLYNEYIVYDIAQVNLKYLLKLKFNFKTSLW
UniProt O00303: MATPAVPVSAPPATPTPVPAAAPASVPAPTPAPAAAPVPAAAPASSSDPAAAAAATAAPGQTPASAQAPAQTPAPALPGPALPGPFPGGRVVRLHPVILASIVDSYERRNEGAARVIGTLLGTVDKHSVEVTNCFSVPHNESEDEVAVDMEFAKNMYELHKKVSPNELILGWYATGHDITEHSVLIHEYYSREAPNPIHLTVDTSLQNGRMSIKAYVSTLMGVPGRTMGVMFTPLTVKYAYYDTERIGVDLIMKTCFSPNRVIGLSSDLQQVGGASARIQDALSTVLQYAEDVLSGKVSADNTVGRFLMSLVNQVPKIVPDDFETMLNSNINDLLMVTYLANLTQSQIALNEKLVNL

These are yes or no findings as the source states them, for the method shown. In cells and extracts the contact can be indirect. Some binding calls cover weakened binding; strength is not graded here. Sequences can lack the tags named with a protein.

In the assay the target is T1, Bone morphogenetic protein/retinoic acid inducible neural-specific 3 (BRINP3), 3x Flag-tagged (UniProt Q76B58).
T1 sequence: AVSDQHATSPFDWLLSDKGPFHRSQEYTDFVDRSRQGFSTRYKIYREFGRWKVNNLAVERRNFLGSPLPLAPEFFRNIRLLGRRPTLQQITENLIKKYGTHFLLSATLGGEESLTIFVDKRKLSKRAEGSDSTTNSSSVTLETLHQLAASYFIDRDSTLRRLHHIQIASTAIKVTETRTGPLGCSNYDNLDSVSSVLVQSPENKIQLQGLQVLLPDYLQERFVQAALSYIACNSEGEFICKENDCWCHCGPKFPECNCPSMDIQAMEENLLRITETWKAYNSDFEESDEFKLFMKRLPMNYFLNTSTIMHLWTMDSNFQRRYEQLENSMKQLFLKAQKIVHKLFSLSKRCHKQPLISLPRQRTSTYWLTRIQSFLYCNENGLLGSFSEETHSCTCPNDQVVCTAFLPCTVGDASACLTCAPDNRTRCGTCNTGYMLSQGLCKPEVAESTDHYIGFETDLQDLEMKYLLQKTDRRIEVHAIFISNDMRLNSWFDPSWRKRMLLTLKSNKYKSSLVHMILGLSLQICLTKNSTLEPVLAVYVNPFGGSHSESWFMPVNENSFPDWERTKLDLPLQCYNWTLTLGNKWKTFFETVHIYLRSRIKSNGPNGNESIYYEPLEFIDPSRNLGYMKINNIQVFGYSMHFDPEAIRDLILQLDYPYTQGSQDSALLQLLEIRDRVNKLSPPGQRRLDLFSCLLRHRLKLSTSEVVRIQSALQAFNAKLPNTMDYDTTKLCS
Kind of assay: co-IP; lysates of U2OS cells overexpressing Flag-BRINP3; IP lysis buffer with protease inhibitor cocktail; antibodies and protein A beads 4 h at 4°C; beads washed three times with lysis buffer; western blot. In general terms: In western blotting, separated proteins are transferred to a membrane and probed.
“Microtubule-associated protein 4 (MAP4) (from UniProt P27816 1-1152)”: the binding entry is on record as “binds”.
PARP1 (from UniProt P09874 1-1014): the binding result is listed as “binds”.
As for EIF3F (from UniProt O00303 1-357), the entry is “binds”.
